Reference: article PMC5830536
Numbering of substitutions follows the chain as printed. Names may count otherwise. No constants are given. Whether binding was seen depends on the method and setting. In cells and extracts the contact can be indirect. Some entries that bind do so weakly or less than the wild type. For part of these data: Where a sequence is shown, tags or fusion partners need not be part of it. Values belong to the binder of their own block, whether it stands above or below them.

The chains behind the UniProt entries cited, without tags or fusion partners.
UniProt Q9Y297: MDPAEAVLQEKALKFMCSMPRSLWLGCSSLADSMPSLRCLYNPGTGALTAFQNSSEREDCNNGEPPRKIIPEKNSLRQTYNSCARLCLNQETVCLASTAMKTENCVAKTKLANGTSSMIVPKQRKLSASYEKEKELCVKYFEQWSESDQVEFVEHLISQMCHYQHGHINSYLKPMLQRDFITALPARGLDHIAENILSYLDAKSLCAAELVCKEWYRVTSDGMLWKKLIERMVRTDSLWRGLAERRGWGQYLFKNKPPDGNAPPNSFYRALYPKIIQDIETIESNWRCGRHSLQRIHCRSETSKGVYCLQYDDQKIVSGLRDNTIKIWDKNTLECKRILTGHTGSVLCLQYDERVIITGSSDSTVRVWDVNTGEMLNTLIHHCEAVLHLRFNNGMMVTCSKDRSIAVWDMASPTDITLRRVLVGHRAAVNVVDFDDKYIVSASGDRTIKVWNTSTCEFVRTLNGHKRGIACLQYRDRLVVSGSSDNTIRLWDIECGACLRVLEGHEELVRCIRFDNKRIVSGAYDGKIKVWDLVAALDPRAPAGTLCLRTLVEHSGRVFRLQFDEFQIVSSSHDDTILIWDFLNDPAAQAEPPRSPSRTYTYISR

Columns and labels:
myc-βTrCP1 (FBXW1A) [1] = target: myc-βTrCP1 (FBXW1A) (UniProt Q9Y297); test: co-IP; lysates of HEK 293T cells co-expressing FLAG-STIL versions and myc-βTrCP for 36 h; IP with 9E10 anti-myc antibodies cross-linked to protein A beads, 2 h at 4°C; washes 50 mM Tris-HCl pH 7.4, 150-300 mM NaCl, 0.5-1% IgePal; western blot for FLAG and myc
myc-βTrCP1 (FBXW1A) [2] = target: myc-βTrCP1 (FBXW1A) (UniProt Q9Y297); test: co-IP; S395D mutant; no figure is cited and no method is told, so the method is taken from the co-IP described in the same sentence

binding (myc-βTrCP1 (FBXW1A) [1]): binds
B1: FLAG-STIL WT (full-length human STIL, residues 1-1287) (protein, UniProt Q15468 1-1287)
chain: MEPIYPFARPQMNTRFPSSRMVPFHFPPSKCALWNPTPTGDFIYLHLSYYRNPKLVVTEKTIRLAYRHAKQNKKNSSCFLLGSLTADEDEEGVTLTVDRFDPGREVPECLEITPTASLPGDFLIPCKVHTQELCSREMIVHSVDDFSSALKALQCHICSKDSLDCGKLLSLRVHITSRESLDSVEFDLHWAAVTLANNFKCTPVKPIPIIPTALARNLSSNLNISQVQGTYKYGYLTMDETRKLLLLLESDPKVYSLPLVGIWLSGITHIYSPQVWACCLRYIFNSSVQERVFSESGNFIIVLYSMTHKEPEFYECFPCDGKIPDFRFQLLTSKETLHLFKNVEPPDKNPIRCELSAESQNAETEFFSKASKNFSIKRSSQKLSSGKMPIHDHDSGVEDEDFSPRPIPSPHPVSQKISKIQPSVPELSLVLDGNFIESNPLPTPLEMVNNENPPLINHLEHLKPLQPQLYDEKHSPEVEAGEPSLRGIPNQLNQDKPALLRHCKVRQPPAYKKGNPHTRNSIKPSSHNGPSHDIFEKLQTVSAGNVQNEEYPIRPSTLNSRQSSLAPQSQPHDFVFSPHNSGRPMELQIPTPPLPSYCSTNVCRCCQHHSHIQYSPLNSWQGANTVGSIQDVQSEALQKHSLFHPSGCPALYCNAFCSSSSPIALRPQGDMGSCSPHSNIEPSPVARPPSHMDLCNPQPCTVCMHTPKTESDNGMMGLSPDAYRFLTEQDRQLRLLQAQIQRLLEAQSLMPCSPKTTAVEDTVQAGRQMELVSVEAQSSPGLHMRKGVSIAVSTGASLFWNAAGEDQEPDSQMKQDDTKISSEDMNFSVDINNEVTSLPGSASSLKAVDIPSFEESNIAVEEEFNQPLSVSNSSLVVRKEPDVPVFFPSGQLAESVSMCLQTGPTGGASNNSETSEEPKIEHVMQPLLHQPSDNQKIYQDLLGQVNHLLNSSSKETEQPSTKAVIISHECTRTQNVYHTKKKTHHSRLVDKDCVLNATLKQLRSLGVKIDSPTKVKKNAHNVDHASVLACISPEAVISGLNCMSFANVGMSGLSPNGVDLSMEANAIALKYLNENQLSQLSVTRSNQNNCDPFSLLHINTDRSTVGLSLISPNNMSFATKKYMKRYGLLQSSDNSEDEEEPPDNADSKSEYLLNQNLRSIPEQLGGQKEPSKNDHEIINCSNCESVGTNADTPVLRNITNEVLQTKAKQQLTEKPAFLVKNLKPSPAVNLRTGKAEFTQHPEKENEGDITIFPESLQPSETLKQMNSMNSVGTFLDVKRLRQLPKLF

binding (myc-βTrCP1 (FBXW1A) [1]): no binding
B2: FLAG-STIL DAG (S395A) (protein, UniProt Q15468 1-1287)
chain: B1 chain with S395A

binding (myc-βTrCP1 (FBXW1A) [2]): no binding
B3: STIL with S395 replaced by aspartate (phospho-mimetic mutant) (protein, UniProt Q15468 1-1287)
chain: B1 chain with S395D
